From paper PMC8433439, “Bivalent ligands promote endosomal trafficking of the dopamine D3 receptor-neurotensin receptor 1 heterodimer” (Communications Biology, 2021)
Results are given in words; binding and its absence hold for the method and conditions named. In cells and extracts the contact can be indirect. Some entries that bind do so weakly or less than the wild type.

Columns and labels:
[1] = biological target: D3R-Nluc (IL6-D3R-GGGAS-Nluc) (human) (UniProt P35462); assay: FRET or BRET; live-cell BRET imaging, HEK293SL cells, 100 ng D3R-Nluc donor, 400 ng mVenus acceptor, 10 µM coelenterazine 400a, HBSS; before and after 10 nM ligand 1d
[2] = biological target: D3R-Rluc (human dopamine D3 receptor fused to Renilla luciferase Rluc8) (human) (UniProt P35462); assay: FRET or BRET; BRET displacement in live HEK293T cells: 500 ng D3R-Rluc, 100 ng NTSR1-mVenus, 0-150 ng non-labelled NTSR1 or CXCR4 plasmid; ΔBRET induced by 10 nM 1d or 1 µM NT(8-13)
[3] = biological target: D3R-Rluc (human dopamine D3 receptor fused to Renilla luciferase Rluc8) (human) (UniProt P35462); assay: FRET or BRET; BRET saturation in live HEK293T cells: constant BRET donor (100 ng D2SR-Rluc or 500 ng D3R-Rluc; Nluc in place of Rluc in one series), 0-800 ng NTSR1-mVenus, PBS, 5 µM coelenterazine-h, room temperature; vehicle, 1 µM monovalent ligands (lowered BRETmax), 10 nM bivalent ligands (raised BRETmax for D3R), 10 µM haloperidol preincubation
[4] = biological target: D3R-Nluc (IL6-D3R-GGGAS-Nluc) (human) (UniProt P35462); assay: as above
[5] = biological target: D2SR-Rluc (dopamine D2 receptor, short form, fused to Rluc8) (UniProt P14416); assay: as above
[6] = biological target: D3R-ProLink (D3R C-terminally tagged with ARMS2-PK2) (human) (UniProt P35462); assay: split reporter; DiscoverX PathHunter enzyme fragment complementation, HEK293 stably expressing β-arrestin2-enzyme acceptor, 2 µg D3R-ProLink cotransfected with 0.5 µg untagged NTSR1; stimulated 5 h at 37 °C with NT(8-13), quinpirole (no change) or bivalent ligands; 1 µM haloperidol preincubation in some
[7] = biological target: wild-type human dopamine D3 receptor (human) (UniProt P35462); assay: proximity ligation; in situ PLA in HEK293T cells transiently transfected with wild-type D3R and NTSR1 (method in Supplementary Methods)
[8] = biological target: NTSR1-ProLink (NTSR1 fused in frame with the PK1 sequence) (human) (UniProt P30989); assay: split reporter; DiscoverX PathHunter enzyme fragment complementation, HEK293 stably expressing β-arrestin2-enzyme acceptor, one ProLink-tagged receptor expressed alone; stimulated 5 h at 37 °C (quinpirole, NT(8-13) or bivalent ligands)

Row | binding [1] | binding [2] | binding [3] | binding [4] | binding [5] | binding [6] | binding [7] | binding [8] | Substance
1 | binds | binds | binds | binds | binds |  |  |  | NTSR1-mVenus (neurotensin receptor 1 tagged with the mVenus fluorescent protein) (from UniProt P30989 1-418)
2 |  | binds |  |  |  | binds | binds |  | wild-type human neurotensin receptor 1 (from UniProt P30989 1-418)
3 |  |  |  |  |  |  |  | binds | β-arrestin2 fused to an engineered galactosidase (enzyme acceptor, DiscoverX PathHunter) (from UniProt P32121 1-409)
